According to patent US20100119452A1, “SCREENING METHOD” (Takeda Pharmaceutical Company Limited, priority 2007, published 2010):
Some entries share one result that the patent states for a list of compounds.

System: LNCaP-hr cells
Experiment: Test of inhibition of PSA production in LNCaP-hr cells (ELISA)
Format: cell-based, human
Settings: three days after addition, PSA in culture medium by ELISA

Cc1c(C#N)c(-c2ccc(C#N)cc2)c(C)n1Cc1ccc(Cl)c(C(O)C(F)(F)F)c1 (stereo not shown) [Compound 3]
Effects of suppressing the production of PSA: Effects of suppressing the production of PSA were observed

Cc1cc(-c2ccc(C#N)cc2)c(Cl)n1Cc1cnc(Cl)c(CO)c1 [Compound 4]
Effects of suppressing the production of PSA: Effects of suppressing the production of PSA were observed

Cc1c(Cl)c(-c2ccc(C#N)cc2)c(C)n1Cc1ccc(F)cc1CO [Compound 5]
Effects of suppressing the production of PSA: Effects of suppressing the production of PSA were observed

Cc1cc(-c2ccc(C#N)cc2)c(C)n1Cc1cc(C(F)(F)F)n[nH]1 [Compound 6]
Effects of suppressing the production of PSA: Effects of suppressing the production of PSA were observed

CNC(=O)c1csc(Cn2c(C)c(Cl)c(-c3ccc(C#N)cc3)c2C)n1 [Compound 7]
Effects of suppressing the production of PSA: Effects of suppressing the production of PSA were observed

Cc1cc(-c2ccc(C#N)cc2)c(C#N)n1Cc1cc(C(F)(F)F)n[nH]1 [Compound 8]
Effects of suppressing the production of PSA: Effects of suppressing the production of PSA were observed

Cc1cc(-c2ccc(C#N)cc2)c(C)n1Cc1cn[nH]c1C(C)(C)O [Compound 9]
Effects of suppressing the production of PSA: Effects of suppressing the production of PSA were observed
